Data as given in PubChem BioAssay AID1508597 (Cure First, 2020)
Purpose: 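Genes whose silencing sensitises or protects ovarian cancer cells against rucaparib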 (primary screen). Cells: human ovarian carcinoma lines grown from tumours: OCI-P5x (papillary serous) and OCI-C5x (clear cell). Reagent: siRNA pool against human genes, 1.25 pmol siRNA per well. Duration: 72 h or 96 h, depending on the cell culture. Conditions: rucaparib 20 µM (about IC30) or vehicle, present until read-out. Rucaparib or vehicle: Rucaparib. Cell line: OCI-C5x (clear cell). Measured: 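ATP luminescence measured at 72 or 96 h according to the culture, then normalised and expressed as percent viability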. Scale: viability, normalised: higher = more viable cells remaining. Active means: 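Active when normalised viability falls below 80 percent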. Calls: active = viability under 80%; inactive = viability 80% or more.
Shown is a random part of the about 2,100 reagents, in one setting of the screen. 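Calls flag viability under 80% in either arm, not effects specific to rucaparib; the reference for percent is not stated.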 Unmarked entries are inactive. A reagent listed more than once was tested more than once; the source does not tell the runs apart. The record does not give: the 100% reference.

The opening 2 records, ahead of the listing:
no.	Gene	technical replicate	viability, normalised (%)
1	GTF2H1 (general transcription factor IIH subunit 1)	1	49.3 (active)
2	GTF2H1 (general transcription factor IIH subunit 1)	2	32.5 (active)

Main list, repeating the preview:
no.	Gene	technical replicate	viability, normalised (%)
1	GTF2H1 (general transcription factor IIH subunit 1)	1	49.3 (active)
2	GTF2H1 (general transcription factor IIH subunit 1)	2	32.5 (active)
3	GTF2H1 (general transcription factor IIH subunit 1)	3	47.5 (active)
4	MAP1B (microtubule associated protein 1B)	1	50.5 (active)
5	MAP1B (microtubule associated protein 1B)	2	40.2 (active)
6	MAP1B (microtubule associated protein 1B)	3	50.4 (active)
7	S100A6 (S100 calcium binding protein A6)	1	40.8 (active)
8	S100A6 (S100 calcium binding protein A6)	2	44.5 (active)
9	S100A6 (S100 calcium binding protein A6)	3	37.3 (active)
10	TNNI3K (TNNI3 interacting kinase)	1	63.6 (active)
11	TNNI3K (TNNI3 interacting kinase)	2	61.8 (active)
12	TNNI3K (TNNI3 interacting kinase)	3	67.7 (active)
13	MYO3B (myosin IIIB)	1	48.2 (active)
14	MYO3B (myosin IIIB)	1	61.6 (active)
15	MYO3B (myosin IIIB)	2	69 (active)
16	MYO3B (myosin IIIB)	2	51.4 (active)
17	MYO3B (myosin IIIB)	3	54.9 (active)
18	MYO3B (myosin IIIB)	3	74.6 (active)
19	KDM5A (lysine demethylase 5A)	1	50.4 (active)
20	KDM5A (lysine demethylase 5A)	2	62.7 (active)
21	KDM5A (lysine demethylase 5A)	3	52.6 (active)
22	KMT2E (lysine methyltransferase 2E (inactive))	1	50.8 (active)
23	KMT2E (lysine methyltransferase 2E (inactive))	2	45.5 (active)
24	KMT2E (lysine methyltransferase 2E (inactive))	3	37.8 (active)
25	DDX50 (DExD-box helicase 50)	1	42.9 (active)
26	DDX50 (DExD-box helicase 50)	2	35.7 (active)
27	DDX50 (DExD-box helicase 50)	3	31.2 (active)
28	CABIN1 (calcineurin binding protein 1)	1	56.5 (active)
29	CABIN1 (calcineurin binding protein 1)	2	30.9 (active)
30	CABIN1 (calcineurin binding protein 1)	3	36.7 (active)
31	REV3L (REV3 like, DNA directed polymerase zeta catalytic subunit)	1	63.9 (active)
32	REV3L (REV3 like, DNA directed polymerase zeta catalytic subunit)	2	47.8 (active)
33	REV3L (REV3 like, DNA directed polymerase zeta catalytic subunit)	3	52 (active)
34	ASXL3 (ASXL transcriptional regulator 3)	1	70.3 (active)
35	ASXL3 (ASXL transcriptional regulator 3)	2	56.9 (active)
36	ASXL3 (ASXL transcriptional regulator 3)	3	58.8 (active)
37	RAD52 (RAD52 DNA repair protein)	1	65.1 (active)
38	RAD52 (RAD52 DNA repair protein)	2	57.6 (active)
39	RAD52 (RAD52 DNA repair protein)	3	51.8 (active)
